Results deposited as PubChem BioAssay AID504793 (Drosophila RNAi Screening Center, 2011).
The deposit covers about 23,000 reagents; shown is an unselected part of those with a known target gene and a result. In the full data, 62 (0.27%) got an active call. 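Calls come from follow-up tests whose scores are not deposited, so confirmed genes may have low counts here; counts are not normalised per plate.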 Raw values vary from plate to plate and are shown uncorrected. The numbers tell different reagents against one gene apart. Names joined by + are all predicted targets of the reagent. Reagent sequences are not shown.

Aim: 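Whole-genome screen for parts of the DNA damage checkpoint at G2/M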 (primary screen)
Cell system: Drosophila S2R+ cells
Knock-down reagent: long dsRNA against Drosophila genes, about 0.25 µg dsRNA per well
Time to read-out: 4 days of dsRNA, then 4 hours of drug before read-out
Conditions: doxorubicin 0.5 µM for 4 hours to cause double-strand breaks, in cells also given a low, harmless dose of dsRNA against nbs to sensitise the assay
Read-out: 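Per-well count of mitotic cells stained for phospho-histone H3 after doxorubicin exposure, used as mitotic index; counts are raw and not normalised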
Reading the numbers: mitotic cells: higher = more cells in mitosis, weaker G2 arrest
Call rule: 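Genes are called active only when high mitotic counts were reproduced with independent dsRNAs and mitosis was checked for delay without damage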
Meaning of the calls: active = confirmed in follow-up tests; inactive = not confirmed

gene	reagent	mitotic cells, replicate 1	call
CG31759	1	10	inactive
CG31642	1	9	inactive
CG31642	2	5	inactive
Gr64c	1	8	inactive
Gr64c	2	4	inactive
CG30034 (retired record)	1	8	inactive
Mcm10	1	10	inactive
Mcm10	2	7	inactive
CG2841	1	11	inactive
CG2841	2	5	inactive
CG9014	1	2	inactive
CG6415	1	6	inactive
CG6415	2	7	inactive
Rpi	1	6	inactive
CG11504	1	3	inactive
ATPsynGL	1	6	inactive
ATPsynGL	2	5	inactive
CG4000	1	11	inactive
CG4000	2	8	inactive
CG4000	3	7	inactive
Ack	1	2	inactive
Ack	2	5	inactive
Grip128	1	18	inactive
sxc	1	6	inactive
CG3165	1	4	inactive
Gug	1	6	inactive
KP78a + KP78b	1	4	inactive
KP78a + KP78b	2	3	inactive
Vps53	1	4	inactive
Ldsdh1	1	7	inactive
Ldsdh1	2	4	inactive
Ref2	1	4	inactive
TwdlK	1	1	inactive
CG11598	1	2	inactive
CG8141	1	6	inactive
Ten-a	1	4	inactive
Ten-a	2	8	inactive
Ten-a	3		inactive
Ten-a	4	10	inactive
Ten-a	5	8	inactive
Ten-a	6	9	inactive
Ten-a	7	20	inactive
Ten-a	8	8	inactive
Ten-a	9	9	inactive
mbo	1	4	inactive
Edg84A	1	6	inactive
dod	1	7	inactive
dod	2	2	inactive
PIG-S	1	5	inactive
PIG-S	2	12	inactive
PIG-S	3	4	inactive
bw	1	5	inactive
bw	2	5	inactive
Ns3	1	10	inactive
Ns3	2	4	inactive
Mdh1 (retired record)	1	7	inactive
CG5412	1	3	inactive
ara	1	8	inactive
ara	2	6	inactive
CG9646	1	8	inactive
CG6441	1	4	inactive
CG17124	1	2	inactive
CG17124	2	5	inactive
CG13795	1	4	inactive
Gdh	1	7	inactive
Gdh	2	3	inactive
MME1	1	1	inactive
CG2854	1	6	inactive
Lpin	1	5	inactive
Trs33	1	4	inactive
RpS27	1	20	inactive
RpS27	2	10	inactive
stum	1	7	inactive
stum	2	7	inactive
mRpL27	1	14	inactive

Already shown: 4 of the entries above.
gene	reagent	mitotic cells, replicate 1	call
Lpin	1	5	inactive
Trs33	1	4	inactive
RpS27	1	20	inactive
RpS27	2	10	inactive
